{"source": "PubChem BioAssay AID588345", "about": "(Broad Institute, 2011)", "note": "The campaign covered roughly 1,300 compounds. About 850 (65%) were called active. Inconclusive results (about 1%) are left out. The rule behind the calls is not given here. The set was probably picked from earlier hits. The entries are a selection whose mix differs from that of the whole data set. Potency and affinity values are given separately."}
{"biological_target": "Dual specificity tyrosine-phosphorylation-regulated kinase 1A (Rattus norvegicus) (UniProt Q63470)", "experiment": "rat Dyrk1A kinase inhibitors, dose response, biochemical, cherry-pick, plate reader, 2124-01 (AID 588345)", "settings": "Dyrk1A kinase biochemical assay; at 12 µM (top of the series)"}
{"compound": "COc1cc2ccc(=O)oc2c2ccoc12", "activity change, negative = inhibition": "inactive: 3.75%"}
{"compound": "NC(=O)c1c(Br)n(C2OC(CO)C(O)C2O)c2ncnc(N)c12", "note": "(stereo not given)", "activity change, negative = inhibition": "inactive: -34.2%"}
{"compound": "Cc1cccc(-n2c(O)c(/C=C3/C(c4ccccc4)=Nc4ccccc43)c(=O)[nH]c2=O)c1", "activity change, negative = inhibition": "inactive: 16.9%"}
{"compound": "COC(=O)C1=C(c2ccc(F)cc2OCc2ccccc2)C[C@@H]2CC[C@H]1N2C(=O)NC1CC1", "activity change, negative = inhibition": "inactive: -6.58%"}
{"compound": "COC(=O)C1=C(c2ccc(Cl)c(C(F)(F)F)c2)C[C@@H]2CC[C@H]1N2C(=O)NCCOc1ccc(OC)cc1", "activity change, negative = inhibition": "inactive: -9.24%"}
{"compound": "NC(=O)c1cn(C2OC(CO)C(O)C2O)c2ncnc(N)c12", "note": "(stereo not given)", "activity change, negative = inhibition": "inactive: 4.89%"}
{"compound": "Cc1nccc2c1[nH]c1ccccc12", "activity change, negative = inhibition": "inactive: 6.39%"}
{"compound": "COC(=O)C1=C(c2ccc(F)cc2OCc2ccccc2)C[C@@H]2CC[C@H]1N2C(=O)NCc1ccccc1", "activity change, negative = inhibition": "inactive: -6.04%"}
{"compound": "Clc1ccc2c(c1)C(c1ccccc1Cl)=NCc1nnc(N3CCN(CCSc4ccccc4)CC3)n1-2", "activity change, negative = inhibition": "inactive: 10.3%"}
{"compound": "N#C/C(=C\\c1ccc(O)cc1)C(=O)O", "activity change, negative = inhibition": "inactive: -4.64%"}
